# Measurements reported in patent publication US20230061352A1, “DRUG DELIVERY DEVICE” (priority 2020, published 2023).
# Experiment: LCMS drug levels in porcine serum from the internal jugular vein
# Type: in vivo, pig
# Details: released from implanted device; 0, 1, 2, 4, 24, 48, 72, 120, 240, 336 hrs; FIGS. 14 and 15
# Description: Devices produced in accordance with the methods of EXAMPLE 1 were implanted into tonsillectomized pigs.
# The specific LCMS method used for detection of Bupivacaine and Lidocaine has been validated in work by Hoizey et al (2005) (Hoizey G, et al. Sensitive bioassay of bupivacaine in human plasma by liquid-chromatography-ion trap mass spectrometry. Journal of pharmaceutical and biomedical analysis. 2005; 39:587-92).
# The specific LCMS method used for detection of Bupivacaine and Lidocaine has been validated in work by Hoizey et al (2005).
structure (smiles),measurement,value
CCN(CC)CC(=O)Nc1c(C)cccc1C [lignocaine],drug level detected in serum (systemic uptake),< 5.6 microgram per ml
